# Reference: PubChem BioAssay AID1259425 (University of Nebraska Medical Center, 2018)
# Aim: 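Seek colon cancer weak points whose silencing resembles KSR1 loss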 (primary screen)
# Cells: HCT116 human colon cancer cells
# Reagents: siRNA pool against human genes, 50 nM siRNA
# Read-out: 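mRNA of six signature genes measured together by branched-DNA assay after 50 nM siRNA pool, blank removed, divided by geometric mean of two housekeeping genes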
# Reading the numbers: BNIP3L mRNA: higher = more BNIP3L transcript after knockdown; NDRG1 mRNA: higher = more NDRG1 transcript after knockdown; BNIP3 mRNA: higher = more BNIP3 transcript after knockdown
# Here is an unselected part of about 14,000 reagents. Not all columns of the deposit are shown. No sequences are given here. Not stated in the record: the time to read-out.
gene,"BNIP3L mRNA, set 1","NDRG1 mRNA, set 1","BNIP3 mRNA, set 1"
HOXB7,0.0927,0.435,0.282
CABP1,0.0648,0.0811,0.238
SPATC1L,0.119,0.115,0.295
MAPKAPK3,0.125,0.208,0.635
FMR1,0.12,0.0296,0.328
ZNF462,0.39,0.115,0.167
CDK3,0.168,0.128,0.322
SETDB1,0.133,0.162,0.319
FAM178B,0.176,0.0881,0.579
TSPYL5,0.113,0.096,0.35
KNTC1,0.0566,0.131,0.281
KLF14,0.164,0.446,0.297
CGB8,0.0998,0.177,0.211
LILRA3,0.169,0.191,0.305
ARHGEF39,0.127,0.119,0.275
TEX35,0.202,0.407,0.304
EFHD2,0.188,0.521,0.443
SCYL3,0.056,0.289,0.193
HAPLN1,-0.0319,0.194,0.277
DKK1,0.18,0.414,0.308
SLC39A8,0.0838,0.0947,0.348

Only “BNIP3L mRNA, set 1” (5 entries from above):
KNTC1: 0.0566
KLF14: 0.164
CGB8: 0.0998
LILRA3: 0.169
ARHGEF39: 0.127

Next reagents follow:
gene,"BNIP3L mRNA, set 1","NDRG1 mRNA, set 1","BNIP3 mRNA, set 1"
ANO10,0.115,0.141,0.275
SF3B1,0.141,1.82,0.361
UACA,0.049,0.0847,0.262
SPACA9,0.187,0.189,0.212
HS6ST1,0.0685,0.121,0.203
TMEM100,0.13,0.145,0.334
QSER1,0.0543,0.257,0.291
GNA13,0.356,0.226,0.639
PWP2,0.239,0.67,0.555
KDSR,0.0806,0.131,0.274
CLDN5,0.104,0.349,0.214
CHPF,0.3,0.545,0.326
RPL15,1.2,1.71,0.507
